From patent US5580956A, “Phospholipase C-inhibiting peptides” (priority 1992, dated 1996)
At least one peptide structure holds a part that was inferred or is arguable (an end, a ring closure or a residue).

System: KMS-4 cells
Assay: Cell proliferation-inhibiting activity (BrdU incorporation, Amersham Cell Proliferation Detection Kit)
Assay type: cell-based
Details: Concentration 42 μM, 17 hours with peptide, BrdU-stained cells
Method: The following procedure was carried out with an Amersham Cell Proliferation Detection Kit. First, cells [KMS-4; M. Nanba et al., International Journal of Cancer, 32, 697 (1983)] were suspended in a DMEM culture medium (product of Nissui Seiyaku) containing 10% fetal calf serum to a concentration of 1-2×10^4 cells/ml, and 1 ml of the above-mentioned cell suspension was put into each well of a 24-well plate (product of Corning Co.). The cells were cultured for 2 days in a CO2 incubator (37° C., 5% CO2). Next, the culture medium was exchanged with a DMEM medium containing 10% fetal calf serum, and then the test peptide was added thereto and culturing was carried out for 17 hours. […] The number of cells incorporating BrdU and the total cell count within 1 field of vision of the microscope (approximately 200 cells) were determined, and the proportion (%) of stained cells per field of vision was calculated. […] The cell proliferation-inhibiting activity was calculated in the following manner. The proliferation activity without addition of peptide was defined as "A", the proliferation activity with addition of the test peptide was defined as "B", and the cell proliferation inhibition rate (X) was determined according to the following equation. […]

Row | Substance | Cell proliferation inhibition rate (%)
1 | Ac-YRKMRLRY-NH2 [Compound (I-10), CH3 CO-Tyr-Arg-Lys-Met -Arg-Leu-Arg-Tyr-NH2] | 50
2 | H-YRKMRLRY-OH [Compound (I-7), H-Tyr-Arg-Lys-Met-Arg-Leu-Arg-Tyr-OH] | 5
